According to PMC10713652:
These are yes or no findings as the source states them, for the method shown. In cells and extracts the contact can be indirect. Some results given as binding are weak or reduced against the parent protein; the word gives no strength.

The chains behind the UniProt entries cited, without tags or fusion partners. Residues count along the entry.
UniProt Q8NI17, residues 20-732: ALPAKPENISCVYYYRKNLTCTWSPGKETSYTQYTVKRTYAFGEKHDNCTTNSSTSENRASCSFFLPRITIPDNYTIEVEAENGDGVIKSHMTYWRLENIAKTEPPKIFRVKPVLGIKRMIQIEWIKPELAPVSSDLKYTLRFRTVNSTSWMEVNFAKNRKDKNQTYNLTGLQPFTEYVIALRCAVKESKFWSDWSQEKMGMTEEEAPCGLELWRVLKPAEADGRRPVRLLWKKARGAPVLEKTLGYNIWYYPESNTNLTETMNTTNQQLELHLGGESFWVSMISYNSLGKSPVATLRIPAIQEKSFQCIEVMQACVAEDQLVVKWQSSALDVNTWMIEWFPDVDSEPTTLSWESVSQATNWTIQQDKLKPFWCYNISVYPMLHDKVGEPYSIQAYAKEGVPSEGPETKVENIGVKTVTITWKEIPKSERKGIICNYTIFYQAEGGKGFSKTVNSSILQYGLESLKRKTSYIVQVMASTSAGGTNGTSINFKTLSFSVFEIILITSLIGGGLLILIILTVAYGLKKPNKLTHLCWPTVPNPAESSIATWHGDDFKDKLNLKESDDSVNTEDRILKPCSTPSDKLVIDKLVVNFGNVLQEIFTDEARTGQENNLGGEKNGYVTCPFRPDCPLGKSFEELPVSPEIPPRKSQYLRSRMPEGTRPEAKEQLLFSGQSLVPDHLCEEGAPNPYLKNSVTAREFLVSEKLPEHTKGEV
UniProt P20309: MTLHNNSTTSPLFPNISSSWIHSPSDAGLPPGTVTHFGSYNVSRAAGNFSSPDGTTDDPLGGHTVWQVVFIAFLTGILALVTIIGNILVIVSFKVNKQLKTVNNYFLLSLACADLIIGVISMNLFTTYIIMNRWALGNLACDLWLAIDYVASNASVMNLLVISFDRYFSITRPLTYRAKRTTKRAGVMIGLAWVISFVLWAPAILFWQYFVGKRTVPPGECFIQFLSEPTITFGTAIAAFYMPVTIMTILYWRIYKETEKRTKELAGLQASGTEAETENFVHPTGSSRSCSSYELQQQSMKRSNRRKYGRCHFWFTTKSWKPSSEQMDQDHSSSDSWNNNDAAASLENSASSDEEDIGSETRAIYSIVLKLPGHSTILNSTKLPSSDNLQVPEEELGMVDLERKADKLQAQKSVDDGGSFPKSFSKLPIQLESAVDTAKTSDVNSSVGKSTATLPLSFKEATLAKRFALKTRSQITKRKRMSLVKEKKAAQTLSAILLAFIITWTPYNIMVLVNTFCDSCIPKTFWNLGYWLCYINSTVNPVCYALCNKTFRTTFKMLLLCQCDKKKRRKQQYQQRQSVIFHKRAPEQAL

Tests used:
[1] = target: IL-31RA in hTERT cells (human airway smooth muscle cell line) (human (endogenous in hTERT cells)) (UniProt Q8NI17); test: proximity ligation; in situ Duolink PLA in hTERT cells; methanol-fixed; primary antibodies against IL-31RA and CHRM3, isotype IgG as negative control
[2] = target: C-terminal FLAG-tagged IL-31RA (interleukin 31 receptor alpha), overexpressed from an Origene plasmid (UniProt Q8NI17); test: co-IP; HEK293T cells transfected for 72 h with FLAG-tagged IL-31RA or control plasmid; RIPA lysates; agarose A/G beads with anti-FLAG or control IgG; washed three times with PBS, eluted with low pH glycine; blots with anti-Flag, anti-IL31RA and anti-CHRM3

Substance	binding [1]	binding [2]
CHRM3 in hTERT cells (human airway smooth muscle cell line) (from UniProt P20309 1-590) (receptor)	binds	–
endogenous CHRM3 protein of HEK293T cells (from UniProt P20309 1-590) (receptor)	–	binds
